Results from US20040001826A1.
These are yes or no findings as the source states them, for the method shown. For part of these data: Binding seen in cells or lysates may run through a third protein. Some binding calls cover weakened binding; strength is not graded here.

Amino acid sequences for entries named in this document (tags omitted). A change or cut given only in a name is not applied to a line headed by its entry. Residues count along the entry.
UniProt P08121, residues 155-1219: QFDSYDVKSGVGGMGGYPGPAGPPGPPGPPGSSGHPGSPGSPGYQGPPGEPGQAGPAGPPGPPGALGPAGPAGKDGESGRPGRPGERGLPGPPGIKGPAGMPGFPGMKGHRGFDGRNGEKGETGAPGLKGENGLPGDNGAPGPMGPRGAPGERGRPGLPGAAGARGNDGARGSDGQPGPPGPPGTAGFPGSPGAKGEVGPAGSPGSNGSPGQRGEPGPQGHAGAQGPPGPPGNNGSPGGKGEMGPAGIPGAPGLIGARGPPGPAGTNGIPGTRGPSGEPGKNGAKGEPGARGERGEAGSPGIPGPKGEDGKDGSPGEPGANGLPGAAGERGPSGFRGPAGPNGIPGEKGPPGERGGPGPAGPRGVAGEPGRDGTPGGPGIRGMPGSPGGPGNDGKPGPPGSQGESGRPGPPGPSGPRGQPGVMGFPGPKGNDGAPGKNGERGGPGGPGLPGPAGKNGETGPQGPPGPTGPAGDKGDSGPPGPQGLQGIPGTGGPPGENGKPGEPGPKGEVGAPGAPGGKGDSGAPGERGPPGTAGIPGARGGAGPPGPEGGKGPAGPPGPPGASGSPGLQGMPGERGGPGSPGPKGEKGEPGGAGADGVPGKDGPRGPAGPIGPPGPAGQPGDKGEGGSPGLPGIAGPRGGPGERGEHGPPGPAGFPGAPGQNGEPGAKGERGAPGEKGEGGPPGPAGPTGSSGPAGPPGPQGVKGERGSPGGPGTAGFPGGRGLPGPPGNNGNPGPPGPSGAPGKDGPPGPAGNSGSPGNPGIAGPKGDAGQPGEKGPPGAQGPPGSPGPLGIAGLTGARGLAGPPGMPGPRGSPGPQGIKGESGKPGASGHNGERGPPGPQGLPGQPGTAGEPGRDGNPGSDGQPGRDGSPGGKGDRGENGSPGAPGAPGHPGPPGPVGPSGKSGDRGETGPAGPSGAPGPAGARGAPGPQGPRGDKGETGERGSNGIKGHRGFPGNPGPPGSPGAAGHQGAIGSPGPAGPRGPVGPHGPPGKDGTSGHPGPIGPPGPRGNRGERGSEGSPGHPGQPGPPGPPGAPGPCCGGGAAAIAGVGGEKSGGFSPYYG
UniProt P30273, residues 19-86: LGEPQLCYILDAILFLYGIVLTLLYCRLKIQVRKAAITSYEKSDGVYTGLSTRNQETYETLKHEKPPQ
UniProt Q9HCN6: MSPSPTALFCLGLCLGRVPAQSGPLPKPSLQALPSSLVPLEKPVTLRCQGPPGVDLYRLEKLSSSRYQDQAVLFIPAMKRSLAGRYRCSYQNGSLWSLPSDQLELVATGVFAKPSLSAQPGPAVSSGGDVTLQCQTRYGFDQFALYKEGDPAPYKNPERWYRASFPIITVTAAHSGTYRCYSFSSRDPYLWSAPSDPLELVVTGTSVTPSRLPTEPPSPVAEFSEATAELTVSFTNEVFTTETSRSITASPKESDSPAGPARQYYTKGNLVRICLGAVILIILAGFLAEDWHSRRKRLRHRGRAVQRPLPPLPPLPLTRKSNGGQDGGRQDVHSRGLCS

How the values were obtained:
[1] = target: mouse collagen (type III) in descending aorta sections (mouse) (UniProt P08121); assay: immunofluorescence on mouse descending aorta sections, anti-human Fc detection
[2] = target: mouse collagen (type III) in descending aorta sections (mouse) (UniProt P08121); assay: immunofluorescence on mouse aorta sections
[3] = target: Fc receptor gamma chain (FcRγ) (UniProt P30273); assay: co-immunoprecipitation with anti-FcRγ antibody from lysates of GPVI-transduced U937 cells and platelets, immunoblot

binding [1] | binding [2] | binding [3] | Substance
binds | binds |  | soluble human GPVI-Fc (extracellular domain of GPVI fused to human IgG1 Fc) (from UniProt Q9HCN6 21-267) (Fc fusion)
 |  | binds | human TANGO 268 (glycoprotein VI, GPVI) (from UniProt Q9HCN6 21-339) (receptor)
